Reference: patent publication US20190216956A1, “COMPOSITIONS FOR RADIOTHERAPY AND USES THEREOF” (priority 2016, published 2019)

How the values were obtained:
[1] = Binding of bleomycin to talc, flow cytometry (Example 11); conditions: for Ratio 355/450 (to no-bleomycin control) / Ratio 355/515 (to no-bleomycin control) / Ratio 355/620 (to no-bleomycin control) / Ratio 405/450 (to no-bleomycin control) / Ratio 405/515 (to no-bleomycin control) / Ratio 488/525 (to no-bleomycin control) / Ratio 532/575 (to no-bleomycin control) / Ratio 633/670 (to no-bleomycin control): talc + bleomycin, washed
[2] = Binding Avidin to sterile talc powder, Pierce 660 nm total protein assay of supernatants and washes (Example 3)
[3] = Amount of Avidin saturating 100 mg talc, Pierce total protein assay (Example 4); assay type: binding
[4] = Attachment of HRP-labeled avidin to bladder mucosa, microtitre plate bladder platform (Example 33); assay type: binding, pig

Cc1c(N)nc([C@H](CC(N)=O)NC[C@H](N)C(N)=O)nc1C(=O)N[C@H](C(=O)N[C@H](C)[C@@H](O)[C@H](C)C(=O)N[C@H](C(=O)NCCc1nc(-c2nc(C(=O)NCCC[S+](C)C)cs2)cs1)[C@@H](C)O)[C@@H](O[C@@H]1OC(CO)[C@@H](O)C(O)C1O[C@H]1OC(CO)[C@@H](O)C(OC(N)=O)C1O)c1c[nH]cn1 (stereo partly shown) [Bleomycin, Bleomycin sulfate Streptomyces verticillus]
binding of bleomycin to talc (flow cytometry) ([1]; 25 mg talc, washed 3x PBS): binds to talc and remains on surface of talc even following multiple PBS washes | Ratio 355/450 (to no-bleomycin control) ([1]; sample 1 mg): 1.0 | Ratio 355/515 (to no-bleomycin control) ([1]; sample 1 mg): 1.0 | Ratio 355/620 (to no-bleomycin control) ([1]; sample 1 mg): 1.3 | Ratio 405/450 (to no-bleomycin control) ([1]; sample 1 mg): 0.8 | Ratio 405/515 (to no-bleomycin control) ([1]; sample 1 mg): 0.6 | Ratio 488/525 (to no-bleomycin control) ([1]; sample 1 mg): 0.9 | Ratio 532/575 (to no-bleomycin control) ([1]; sample 1 mg): 1.1 | Ratio 633/670 (to no-bleomycin control) ([1]; sample 1 mg): 1.1 | Ratio 355/450 (to no-bleomycin control) ([1]; sample 100 mg): 2.3 | Ratio 355/515 (to no-bleomycin control) ([1]; sample 100 mg): 1.2 | Ratio 355/620 (to no-bleomycin control) ([1]; sample 100 mg): 1.6 | Ratio 405/450 (to no-bleomycin control) ([1]; sample 100 mg): 2.4 | Ratio 405/515 (to no-bleomycin control) ([1]; sample 100 mg): 2.5 | Ratio 488/525 (to no-bleomycin control) ([1]; sample 100 mg): 1.7 | Ratio 532/575 (to no-bleomycin control) ([1]; sample 100 mg): 1.6 | Ratio 633/670 (to no-bleomycin control) ([1]; sample 100 mg): 1.0 | Ratio 355/450 (to no-bleomycin control) ([1]; sample 500 mg): 7.0 | Ratio 355/515 (to no-bleomycin control) ([1]; sample 500 mg): 1.3 | Ratio 355/620 (to no-bleomycin control) ([1]; sample 500 mg): 2.5 | Ratio 405/450 (to no-bleomycin control) ([1]; sample 500 mg): 7.3 | Ratio 405/515 (to no-bleomycin control) ([1]; sample 500 mg): 6.6 | Ratio 488/525 (to no-bleomycin control) ([1]; sample 500 mg): 2.1 | Ratio 532/575 (to no-bleomycin control) ([1]; sample 500 mg): 3.0 | Ratio 633/670 (to no-bleomycin control) ([1]; sample 500 mg): 1.1

Avidin: Avidin from egg white (Sigma); 60,000 m.w. egg-white protein that binds biotin
Saturation of AVIDIN to the combine surface of 100 mg talc ([2]; 198.4 μg Avidin added to 100 mg talc): 2.48 μg/cm^2 | Avidin binded to talc ([2]; 198.4 μg Avidin added to 100 mg talc (0.5 ml)): 184.7 µg | Saturation of AVIDIN to the combine surface of 100 mg talc ([2]; 1650.3 μg Avidin added to 100 mg talc): 6.25 μg/cm^2 | Avidin binded to talc ([2]; 1650.3 μg Avidin added to 100 mg talc (0.5 ml)): 465.3 µg | Amount of Avidin removed by wash ([2]; 1st wash with EDTA, 198.4 μg Avidin added): 15.8 µg/mL | Amount of Avidin removed by wash ([2]; 1st wash with EDTA, 1650.3 μg Avidin added): 13.2 µg/mL | Amount of Avidin removed by wash ([2]; 1st wash with PBS, 198.4 μg Avidin added to 100 mg talc): 31.4 µg/mL | Amount of Avidin removed by wash ([2]; 1st wash with PBS, 1650.3 μg Avidin added to 100 mg talc): 307.4 µg/mL | Amount of Avidin removed by wash ([2]; 2nd wash with EDTA, 198.4 μg Avidin added): 19.8 µg/mL | Amount of Avidin removed by wash ([2]; 2nd wash with EDTA, 1650.3 μg Avidin added): 12.3 µg/mL | Amount of Avidin removed by wash ([2]; 2nd wash with PBS, 198.4 μg Avidin added): 27.6 µg/mL | Amount of Avidin removed by wash ([2]; 2nd wash with PBS, 1650.3 μg Avidin added): 67.3 µg/mL | Amount of Avidin removed by wash ([2]; 3rd wash with EDTA, 198.4 μg Avidin added): 13 µg/mL | Amount of Avidin removed by wash ([2]; 3rd wash with EDTA, 1650.3 μg Avidin added): 13.2 µg/mL | Amount of Avidin removed by wash ([2]; 3rd wash with PBS, 198.4 μg Avidin added): 32.7 µg/mL | Amount of Avidin removed by wash ([2]; 3rd wash with PBS, 1650.3 μg Avidin added): 40.3 µg/mL | Avidin per talc surface ([3]; 330 μg/ml Avidin added): 1.5 μg/cm2 | Avidin per talc surface ([3]; 3300 μg/ml Avidin added): 33.0 μg/cm2 and 33 μg/cm2 | Avidin per talc surface ([3]; 6600 μg/ml Avidin added): 62.3 μg/cm2 | Avidin per talc surface ([3]; 19800 μg/ml Avidin added): 163.5 μg/cm2 | Avidin binded with talc ([3]; ID 1: 19800 μg/ml Avidin added): 12166.7 µg/mL | Avidin in supernatant ([3]; ID 1: 19800 μg/ml Avidin added): 7633.3 μg, ml | Avidin binded with talc ([3]; ID 2: […] Avidin added): 7952.7 µg/mL | Avidin in supernatant ([3]; ID 2: […] Avidin added): 5247.3 μg, ml | Avidin binded with talc ([3]; ID 3: 6600 μg/ml Avidin added): 4631.5 µg/mL | Avidin in supernatant ([3]; ID 3: 6600 μg/ml Avidin added): 1968.5 μg, ml | Avidin binded with talc ([3]; ID 4: 3300 μg/ml Avidin added): 2452.7 µg/mL | Avidin in supernatant ([3]; ID 4: 3300 μg/ml Avidin added): 847.3 μg, ml | Avidin binded with talc ([3]; ID 5: 330 μg/ml Avidin added): 110.4 µg/mL | Avidin in supernatant ([3]; ID 5: 330 μg/ml Avidin added): 219.6 μg, ml | Avidin per talc surface ([3]; […] Avidin added): 106.9 μg/cm2 | binding to porcine bladder mucosa [4]: bind tightly to porcine bladder mucosa | pH at which binding to porcine bladder mucosa is best ([4]; protein free saline): ≤ 8.0

Several values for one entry are separate records, joined by “and”; a condition that tells them apart may be missing. Equal entries are not always repeated. Structures can show the parent of a compound that is named as a salt.
